# Values from PubChem BioAssay AID1224830 (NIAID, 2016)
# Aim: 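Host factors that control LPS-induced TNF expression in human macrophages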 (primary screen)
# Cells: human THP-1 monocytic leukaemia cells, TNF dual-luciferase reporter clone, PMA-differentiated to macrophage-like cells
# Knock-down reagent: siRNA pool against human genes, 50 nM
# Duration: LPS for 4 h, given about 3 days after siRNA transfection
# Conditions: bacterial LPS (TLR4 ligand), 10 ng/ml
# Measured: 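Ratio of firefly to renilla light, scaled to the plate median and expressed as a robust z-score per replicate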
# Scale: TNF reporter robust z-score: higher = stronger TNF reporter response to LPS
# Hit rule: 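a well is active when its z-score exceeds 2.8 or falls below -1.5; control wells carry no call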
# Shown is an unselected part of about 18,000 deposited reagents. About 2,900 of them (16%) were called active. 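Calls are made per well; low scores hint the gene aids the LPS response, high scores that it dampens it.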 Repeated entries: four replicate wells of each siRNA pool.
gene,TNF reporter robust z-score,call
OR3A1,-0.34,inactive
OR3A1,0.05,inactive
OR3A1,0.83,inactive
LHFPL1,-0.54,inactive
LHFPL1,0.03,inactive
LHFPL1,-0.55,inactive
LHFPL1,-1.3,inactive
GCSAML,-0.96,inactive
GCSAML,-0.35,inactive
GCSAML,-0.26,inactive
GCSAML,-0.75,inactive
F8,-0.36,inactive
F8,-0.6,inactive
F8,-0.68,inactive
F8,-0.3,inactive
TEDC2,-0.77,inactive
TEDC2,-0.47,inactive
TEDC2,-0.31,inactive
TEDC2,-0.42,inactive
RPL18P4,1.69,inactive
RPL18P4,5.5,active
RPL18P4,5.04,active
RPL18P4,0.21,inactive
CREG1,-0.97,inactive
CREG1,-0.16,inactive
CREG1,0.5,inactive
CREG1,1.04,inactive
ZSCAN5A,-0.78,inactive
ZSCAN5A,1.09,inactive
ZSCAN5A,0.6,inactive
ZSCAN5A,0.38,inactive
PRKAR1A,0.92,inactive
PRKAR1A,0.47,inactive
PRKAR1A,0.91,inactive
PRKAR1A,0.16,inactive
ECSIT,0.07,inactive
ECSIT,1.08,inactive
ECSIT,2.49,inactive
ECSIT,0.58,inactive
PIGS,0.25,inactive
PIGS,1.1,inactive
PIGS,1.43,inactive
PIGS,1.27,inactive
NIPSNAP2,-0.97,inactive
NIPSNAP2,-0.59,inactive
NIPSNAP2,-0.3,inactive
NIPSNAP2,-1.38,inactive
MOCS3,-1.17,inactive
MOCS3,-0.02,inactive
MOCS3,0.13,inactive
MOCS3,0.21,inactive
ATP8B4,1.21,inactive
ATP8B4,1.37,inactive
ATP8B4,1.32,inactive
ATP8B4,1.05,inactive
REDIC1,-1.06,inactive
REDIC1,-0.69,inactive
REDIC1,-0.52,inactive
REDIC1,-0.46,inactive
RRP8,-1.04,inactive
RRP8,-0.68,inactive
RRP8,-0.85,inactive
RRP8,-0.45,inactive
STAT2,0.09,inactive
STAT2,0.48,inactive
STAT2,0.8,inactive
STAT2,0.51,inactive
PIN4,-0.21,inactive
PIN4,-0.06,inactive
PIN4,-0.44,inactive
PIN4,-0.17,inactive
DCN,-0.14,inactive
DCN,0,inactive
DCN,-0.35,inactive
DCN,0.56,inactive
DGLUCY,-0.87,inactive
DGLUCY,-0.14,inactive
DGLUCY,-0.24,inactive
DGLUCY,0.09,inactive
PRR14L,-0.19,inactive
PRR14L,0.59,inactive
PRR14L,-0.67,inactive
PRR14L,1.82,inactive
MMP2,1.02,inactive
MMP2,0.01,inactive
MMP2,1.84,inactive
ANAPC5,0.07,inactive
ANAPC5,1.43,inactive
ANAPC5,0.58,inactive
ANAPC5,-0.51,inactive

Records above with an active call:
gene,TNF reporter robust z-score,call
RPL18P4,5.5,active
RPL18P4,5.04,active

The list goes on.
gene,TNF reporter robust z-score,call
FBXO10,0.61,inactive
FBXO10,2.17,inactive
FBXO10,3.17,active
FBXO10,0.53,inactive
ARRB1,0.38,inactive
ARRB1,1.05,inactive
ARRB1,-0.16,inactive
ARRB1,0.51,inactive
MYO3A,-1.12,inactive
MYO3A,0.24,inactive
MYO3A,0.89,inactive
MYO3A,-0.29,inactive
PMPCA,0.37,inactive
PMPCA,1.55,inactive
PMPCA,1.39,inactive
PMPCA,1.29,inactive
ABHD18,-1.57,active
ABHD18,-0.6,inactive
ABHD18,-1.39,inactive
ABHD18,-0.26,inactive
H4C15,-0.28,inactive
H4C15,0.22,inactive
H4C15,-0.11,inactive
H4C15,-0.56,inactive
GAST,1.13,inactive
GAST,0.38,inactive
GAST,0.47,inactive
GAST,0.41,inactive
DNAJB3P,1.42,inactive
DNAJB3P,0.36,inactive
DNAJB3P,1.52,inactive
DNAJB3P,0.57,inactive
NFKBID,0.05,inactive
NFKBID,0.28,inactive
NFKBID,0.08,inactive
NFKBID,1.6,inactive
LYSMD4,0.88,inactive
LYSMD4,1.16,inactive
LYSMD4,0.74,inactive
LYSMD4,1.52,inactive
PPP2R5A,-1.22,inactive
PPP2R5A,-1.06,inactive
PPP2R5A,-0.73,inactive
PPP2R5A,0.12,inactive
KCNJ13,0.09,inactive
KCNJ13,1.29,inactive
KCNJ13,0.27,inactive
KCNJ13,0.64,inactive
ARFIP2,4,active
ARFIP2,1.19,inactive
ARFIP2,0.16,inactive
ARFIP2,1.4,inactive
